Data reported in patent publication US20230220071A1.
Results are given in words; binding and its absence hold for the method and conditions named. Some binding calls cover weakened binding; strength is not graded here.

Assays:
[1] = target: cynomolgus transferrin receptor (BIAcore, construct not stated) (cynomolgus); assay: SPR (BIAcore), off-rate determination at 37 °C
[2] = target: human transferrin receptor (BIAcore, construct not stated) (human) (UniProt P02786); assay: SPR (BIAcore), off-rate determination at 37 °C
[3] = target: cynomolgus transferrin receptor (BIAcore, construct not stated) (cynomolgus); assay: SPR (BIAcore), off-rate determination at 25 °C
[4] = target: human transferrin receptor (BIAcore, construct not stated) (human) (UniProt P02786); assay: SPR (BIAcore), off-rate determination at 25 °C

Measured: binding

B1: murine anti-transferrin receptor antibody 128.1 (antibody, V domains shown)
VH: QVQLVQSGAEVKKPGASVKVSCKASGYTFTGYTMNWVRQAPGQGLEWMGRINPHNGGTDYAQKFQGRVTMTRDTSISTAYMELSRLRSDDTAVYYCARGYYYYSLDYWGQGTLVTVSS
VL: DIQMTQSPSSLSASVGDRVTITCRASSSIRYIHWYQQKPGKAPKRLIYDTSNLASGVPSRFSGSGSGTEFTLTISSLQPEDFATYYCHQRNSYPWTFGQGTRLEIK
binds: [1] | [2] | [3] | [4]

B2: 567 (antibody, V domains shown)
VH: QSMEESGGRLVTPGTPLTLTCTVSGFSLSSYAMSWVRQAPGKGLEWIGYIWSGGSTDYASWAKGRFTISKTSTTVDLKITSPTTEDTATYFCARRYGTSYPDYGDANGFDPWGPGTLVTVSS
VL: AYDMTQTPASVEVAVGGTVTIKCQASQSISSYLSWYQQKPGQRPKLLIYRASTLASGVSSRFKGSGSGTQFTLTISGVESADAATYYCQQSYSSSNVDNTFGGGTEVVVK
binds: [3] | [4]
